Assay results: patent US20090131531A1 (priority 2005, published 2009)
Read-outs that look alike come from different tables or passages of the source. Some results were stated once for a whole list of compounds, not compound by compound.

Key:
Type in all cases: in vivo
Phytophthora infestans [1] = settings: tomato seedling (variety: Patio), 200 ppm, sprayed on leaves and stems, inoculated after air-drying, 1 day at 23° C. then 4 days in greenhouse, visual
Phytophthora infestans [2] = settings: tomato seedling (variety: Patio), 500 ppm, sprayed on leaves and stems, inoculated after air-drying, 1 day at 23° C. then 4 days in greenhouse, visual
Phytophthora infestans [3] = settings: tomato seedling (variety: Patio), 200 ppm, irrigation 20 ml per pot, inoculated 7 days after treatment, 1 day at 23° C. then 4 days in greenhouse, visual

| Compound | lesion areas in the seedlings treated as compared with the lesion areas in seedlings without treatment (Phytophthora infestans [1]) | lesion areas in the seedlings treated as compared with the lesion areas in seedlings without the treatment (Phytophthora infestans [2]) | lesion areas in the seedlings treated as compared with the lesion areas in seedlings without treatment (Phytophthora infestans [3]) |
| --- | --- | --- | --- |
| C#CCOc1ccc(C(=O)NCC2CCCCC2)cc1OC [Compound 17, N-cyclohexylmethyl-4-(2-propynyloxy)-3-methoxybenzamide] | ≤ 30% | ≤ 30% | ≤ 30% |
| C#CCOc1c(F)cc(C(=O)NC2CCCCC2O)cc1F (stereo not drawn) [Compound 64, N-(2-hydroxycyclohexyl)-3,5-difluoro-4-(2-propynyloxy)benzamide] | – | ≤ 30% | ≤ 30% |
| C#CCOc1c(F)cc(C(=O)NCC2(O)CCCCC2)cc1F [Compound 75, N-(1-hydroxycyclohexyl)methyl-3,5-difluoro-4-(2-propynyloxy)benzamide] | – | – | ≤ 30% |
| C#CCOc1ccc(C(=O)NC2CCCCC2Cl)cc1OC (stereo not drawn) [Compound 108, N-(2-chlorocyclohexyl)-3-methoxy-4-(2-propynyloxy)benzamide] | ≤ 30% | ≤ 30% | ≤ 30% |
| C#CCOc1ccc(C(=O)NC2CCCCC2C)cc1OC (stereo not drawn) [Compound 2, N-(2-methylcyclohexyl)-3-methoxy 4-(2-propynyloxy)benzamide] | ≤ 30% | ≤ 30% | ≤ 30% |
| C#CCOc1c(OC)cc(C(=O)NC2CCCCC2)cc1OC [Compound 26, N-cyclohexyl-4-(2-propynyloxy)-3,5-dimethoxybenzamide] | – | – | ≤ 30% |
| C#CCOc1ccc(C(=O)NC(C)C2(O)CCCCC2)cc1OC (stereo not drawn) [Compound 115, N-(1-(1-hydroxycyclohexyl)ethyl)-3-methoxy-4-(2-propynyloxy)benzamide] | ≤ 30% | ≤ 30% | ≤ 30% |
| C#CCOc1ccc(C(=O)N[C@@H](C)C2CCCCC2)cc1OC [Compound 21, N-((1S)-1-cyclohexylethyl)-4-(2-propynyloxy)-3-methoxybenzamide] | ≤ 30% | ≤ 30% | ≤ 30% |
| C#CCOc1ccc(C(=O)NC2CCCCC2O)cc1OC (stereo not drawn) [Compound 16, N-(2-hydroxycyclohexyl)-4-(2-propynyloxy)-3-methoxybenzamide] | ≤ 30% | ≤ 30% | ≤ 30% |
| C#CCOc1ccc(C(=O)NC(C)C2(O)CCCCC2)cc1F (stereo not drawn) [Compound 117, N-(1-(1-hydroxycyclohexyl)ethyl)-3-fluoro-4-(2-propynyloxy)benzamide] | ≤ 30% | ≤ 30% | ≤ 30% |
| C#CCOc1c(F)cc(C(=O)NC2CCCC2C)cc1F (stereo not drawn) [Compound 54, N-(2-methylcyclopentyl)-3,5-difluoro-4-(2-propynyloxy)benzamide] | ≤ 30% | ≤ 30% | ≤ 30% |
| C#CCOc1ccc(C(=O)NC2CCCC2C)cc1F (stereo not drawn) [Compound 69, N-(2-methylcyclopentyl)-3-fluoro-4-(2-propynyloxy)benzamide] | ≤ 30% | ≤ 30% | ≤ 30% |
| C#CCOc1c(F)cc(C(=O)NC2CCCC2C)cc1OC (stereo not drawn) [Compound 70, N-(2-methylcyclopentyl)-3-fluoro-5-methoxy-4-(2-propynyloxy)benzamide] | ≤ 30% | – | ≤ 30% |
| C#CCOc1c(OC)cc(C(=O)NCC2CCCCC2)cc1OC [Compound 1, N-cyclohexylmethyl-4-(2-propynyloxy)-3,5-dimethoxybenzamide] | ≤ 30% | – | ≤ 30% |
| C#CCOc1c(OC)cc(C(=O)NC2CCCCC2O)cc1OC (stereo not drawn) [Compound 39, N-(2-hydroxycyclohexyl)-3,5-dimethoxy-4-(2-propynyloxy)benzamide] | ≤ 30% | ≤ 30% | ≤ 30% |
| C#CCOc1c(F)cc(C(=O)NC2CCCCC2Br)cc1F (stereo not drawn) [Compound 112, N-(2-bromocyclohexyl)-3,5-difluoro-4-(2-propynyloxy)benzamide] | – | – | ≤ 30% |
| C#CCOc1c(F)cc(C(=O)NC2CCCC2O)cc1F (stereo not drawn) [Compound 111, N-(2-hydroxycyclopentyl)-3,5-difluoro-4-(2-propynyloxy)benzamide] | ≤ 30% | – | ≤ 30% |
| C#CCOc1c(F)cc(C(=O)NC2CCCCC2C)cc1F (stereo not drawn) [Compound 42, N-(2-methylcyclohexyl)-3,5-difluoro-4-(2-propynyloxy)benzamide] | – | – | ≤ 30% |
| C#CCOc1c(OC)cc(C(=O)N[C@@H](C)C2CCCCC2)cc1OC [Compound 23, N-((1S)-1-cyclohexylethyl)-4-(2-propynyloxy)-3,5-dimethoxybenzamide] | ≤ 30% | ≤ 30% | ≤ 30% |
| C#CCOc1ccc(C(=O)NCC2CCCCC2)cc1F [Compound 22, N-cyclohexylmethyl-3-fluoro-4-(2-propynyloxy)benzamide] | ≤ 30% | ≤ 30% | ≤ 30% |
| C#CCOc1c(F)cc(C(=O)NC2CCCCC2C)cc1OC (stereo not drawn) [Compound 48, N-(2-methylcyclohexyl)-3-fluoro-5-methoxy-4-(2-propynyloxy)benzamide] | ≤ 30% | ≤ 30% | ≤ 30% |
| C#CCOc1c(OC)cc(C(=O)NC2CCC2)cc1OC [Compound 28, N-cyclobutyl-4-(2-propynyloxy)-3,5-dimethoxybenzamide] | – | ≤ 30% | ≤ 30% |
| C#CCOc1c(F)cc(C(=O)N[C@@H](C)C2CCCCC2)cc1OC [Compound 46, N-((1S)-1-cyclohexyl)ethyl-3-fluoro-5-methoxy-4-(2-propynyloxy)benzamide] | ≤ 30% | ≤ 30% | – |
| C#CCOc1c(F)cc(C(=O)N[C@@H](C)C2CCCCC2)cc1F [Compound 43, N-((1S)-1-cyclohexyl)ethyl-3,5-difluoro-4-(2-propynyloxy)benzamide] | ≤ 30% | ≤ 30% | – |
| C#CCOc1c(OC)cc(C(=O)NCC2CCCC2)cc1OC [Compound 30, N-cyclopentylmethyl-3,5-dimethoxy-(2-propynyloxy)benzamide] | ≤ 30% | – | ≤ 30% |
| C#CCOc1ccc(C(=O)NC2CCCCC2)cc1F [Compound 36, N-cyclohexyl-3-fluoro-4-(2-propynyloxy)benzamide] | ≤ 30% | ≤ 30% | – |
| C#CCOc1c(F)cc(C(=O)NC2CCCCC2Cl)cc1F (stereo not drawn) [Compound 87, N-(2-chlorocyclohexyl)-3,5-difluoro-4-(2-propynyloxy)benzamide] | – | – | ≤ 30% |
| C#CCOc1c(OC)cc(C(=O)NC2CCCC2)cc1OC [Compound 27, N-cyclopentyl-4-(2-propynyloxy)-3,5-dimethoxybenzamide] | – | ≤ 30% | ≤ 30% |
| C#CCOc1c(F)cc(C(=O)N[C@@H]2CCCC[C@H]2C)cc1F (relative stereo) [Compound 56, trans-N-(2-methylcyclohexyl)-3,5-difluoro-4-(2-propynyloxy)benzamide] | ≤ 30% | – | ≤ 30% |
